The results in this text go back to PubChem BioAssay AID2685 (National Center for Advancing Translational Sciences (NCATS), 2010).

The AC50 is the concentration giving half of the maximal activity seen. Lower therefore signals activity at low concentration.

This is one part of the list. The main result of the screen is listed elsewhere. These columns were measured beside it and carry no call. The list favours compounds with an active or inconclusive main result. Words in brackets tell the shape of the fitted curve; partial curves, single points and poor fits give uncertain potencies.

A short description of this assay: qHTS Assay for Lipid Storage Modulators in Drosophila S3 Cells.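 On cell number change: cells counted by Cell Tracker Red CMTPX staining in the red channel.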 As to conditions: BODIPY lipid droplet fluorescence, 18-24 h; for cell number change: measured here: cell count max response, cells fed with added oleic acid. In outline: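 Drosophila S3 cells loaded with oleic acid (400 uM, as added) and compounds at several concentrations; lipid droplets imaged by 488-nm laser-scanning cytometry, 500–530 nm intensity and object ratio to cell channel. Percent activity normalized to 20 uM Triacsin C.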
(In general: In qHTS, concentration-response curves come from the screen itself.)

The mark [1] stands for this setting: measured here: cell number channel AC50, cells fed with added oleic acid.
Where [2] appears, read: measured here: lipid fluorescence (Fed channel) AC50, cells fed with added oleic acid.

On to `COc1ccc(S(=O)(=O)N2CCC(C(=O)NC(c3nc4ccccc4[nH]3)C(C)C)CC2)cc1` (configuration not stated), for which the cell number change was -29.8%.

`O=C(N/N=C/c1cc([N+](=O)[O-])ccc1O)c1ccc(COc2ccc3c(c2)CCC3)o1`: the cell number change is -46.3%. Further, the AC50 under setting [1] was 29.1 µM [falling, single point].

Regarding `COc1cc(OC)c2ccc(=O)oc2c1C(CC(=O)N1CCCC1)c1ccc2c(c1)OCO2` (configuration not stated), the cell number change was 17.5%. In addition, the AC50 under setting [2] was 0.411 µM [rising, full curve, poor fit].

With `CCCN(CCC)S(=O)(=O)c1ccc(C(=O)Nc2nc3c(s2)CCc2ccccc2-3)cc1`, the cell number change is -55.5%. The AC50 under setting [1] was 18.4 µM [falling, partial curve, poor fit]. Moreover, under setting [2], the AC50 was 25.9 µM [falling, partial curve, poor fit].

For `COC(=O)c1cccc(COC(=O)c2ccccc2NC(=O)c2ccco2)c1`, the cell number change was -5.47%.

In the case of `Cc1c(Cc2ccccc2)c(=O)oc2c(C)c(OCC(=O)NCC3CCC(C(=O)O)CC3)ccc12` (configuration not stated), the cell number change was determined as 14.2%.

For the compound `Cc1cccc(C(=O)N2CCC(=O)N(C(COCc3cccc(C(F)(F)F)c3)Cc3ccccc3)CC2)c1` (configuration not stated), the cell number change is 4.3%. Under setting [2], the AC50 was 2.91 µM [falling, partial curve].

In the case of `CCNc1sc(C(=O)c2cccs2)c(N)c1-c1nc2ccccc2s1`, the cell number change was -56.1%. In addition, under setting [1], the AC50 was 29.1 µM [falling, single point]. Under setting [2], the AC50 is 29.1 µM [falling, single point].

For `O=C(Nc1nc2ccsc2c(=O)s1)c1ccc(F)cc1Cl`, the cell number change is -18.7%.

With `O=C(Nc1cccnc1)c1cc(S(=O)(=O)N2CCOCC2)ccc1Br`, the cell number change is 17.3%. Besides, the AC50 under setting [2] was 17.8 µM [rising, partial curve].

For the compound `CC(=O)c1cccc(NC(=O)C2C3C=CC(C3=C(c3ccccc3)c3ccccc3)C2C(=O)O)c1` (configuration not stated), the AC50 under setting [1] was 0.058 µM [rising, full curve, poor fit] and the AC50 under setting [2] is 0.13 µM [rising, full curve, poor fit].

With `O=S(=O)(c1ccc2ccccc2c1)N1CCCCC1`, the AC50 under setting [2] is 0.13 µM [falling, full curve].

As for `O=C(Oc1cccc2c(O)cccc12)c1ccccc1`, the cell number change was -64.3%. Moreover, under setting [1], the AC50 was 25.9 µM [falling, single point]. Further, under setting [2], the AC50 is 29.1 µM [falling, single point].

Regarding `Cc1ccc(C(=O)N/C(=C\c2ccc(-c3ccc(Br)cc3)o2)C(=O)NC2CCS(=O)(=O)C2)cc1` (configuration not stated), the cell number change was -36.1%. The AC50 under setting [1] was 20.6 µM [falling, single point]. Moreover, the AC50 under setting [2] is 25.9 µM [falling, single point].

For the compound `CSc1ncc(Cl)c(C(=O)Nc2sc3c(c2C(=O)NCc2ccco2)CCCC3)n1`, the cell number change amounted to 4.31%. Also, under setting [2], the AC50 was 9.2 µM [rising, partial curve].

Consider `COc1ccc(CNC(=O)COC(=O)C2CC2C)cc1OC` (configuration not stated), for which the cell number change amounted to 1.5%. In addition, the AC50 under setting [2] was 29.1 µM [falling, single point].

For the compound `COC(=O)c1nnn(Cc2ccccc2)c1N`, the cell number change is -13.4%.

Take `O=C(NCC(=O)N(c1ccc(F)cc1)C(C(=O)NC1CCCC1)c1cccnc1)c1cccs1` (configuration not stated): the cell number change is -36%. In addition, under setting [1], the AC50 was 9.2 µM [falling, partial curve]. For the same compound, under setting [2], the concentration at half-maximal activity (AC50) is 11.6 µM [falling, partial curve].

As for `Cc1ccc(C)c(OCC(=O)Nc2ccccc2C(=O)N2CCOCC2)c1`, the cell number change is -41.8%. In addition, the AC50 under setting [1] was 16.4 µM [falling, partial curve, poor fit]. Under setting [2], the AC50 is 11.6 µM [falling, partial curve].

Turning to `c1ccc(OCCCc2nc(-c3cccnc3)no2)cc1`, the cell number change turned out to be 8.05%. The AC50 under setting [2] was 1.16 µM [rising, full curve].

With `CC(C)NC(=O)c1cnc(Sc2ncc(C(F)(F)F)cc2Cl)n1C`, the cell number change was 3.7%. Besides, the AC50 under setting [2] was 2.31 µM [rising, full curve, poor fit].

Regarding `CCOC(=O)c1c(-c2ccc(C)o2)csc1NC(=S)NC(=O)c1ccc(F)cc1`, the cell number change is 9.86%. Also, the concentration at half-maximal activity (AC50) under setting [2] is 0.366 µM [rising, partial curve, poor fit].

Take `CC(=O)c1ccc(O)c(CSc2nncn2C)c1`: the cell number change is 1.92%. Moreover, the AC50 under setting [2] was 6.51 µM [rising, single point].

For the compound `CCOc1cc(/C=N/Nc2cccc(C(=O)O)c2)ccc1OC(=O)c1ccccc1`, the cell number change amounted to 17.5%. Also, the AC50 under setting [2] is 1.46 µM [rising, partial curve, poor fit].

Take `COc1ccc(/C=N/NC(=O)c2cc(C34CC5CC(CC(C5)C3)C4)[nH]n2)cc1OC`: the cell number change was found to be 10.8%. Under setting [2], the AC50 was 1.3 µM [rising, partial curve, poor fit].

For the compound `CN1/C(=C\C(=S)NC(=O)c2ccccc2Cl)C(C)(C)c2ccccc21`, the cell number change is -4.6%. Also, the concentration at half-maximal activity (AC50) under setting [2] is 29.1 µM [falling, single point].

As to `Cc1ccc(Nc2nc(-c3ccccc3)c(CC(=O)O)s2)cc1`, the cell number change was determined as 14.3%.

On to `COc1ccccc1-n1cnc2cc(NS(=O)(=O)c3ccc(Br)cc3)ccc21`, for which the concentration at half-maximal activity (AC50) runs as follows: under setting [1], 0.206 µM [rising, full curve, poor fit]; under setting [2], 29.1 µM [rising, partial curve].

`CCc1ccc(CNC(=O)C2CCCN(S(=O)(=O)N3CC(C)CC(C)C3)C2)cc1` (configuration not stated): the cell number change was 8.56%. Besides, the AC50 under setting [2] is 0.58 µM [rising, single point].

Consider `CC(C)Oc1ccc(CN2CCC(n3nccc3NC(=O)c3cccnc3)CC2)cc1`, for which the cell number change amounted to 49.9%. The AC50 under setting [1] was 7.31 µM [rising, partial curve, poor fit].

In the case of `Cc1ccc(NC(=O)COC(=O)c2ccccc2-c2nc3ccccc3s2)c(C)c1`, the cell number change came to 15.3%. Also, the AC50 under setting [2] was 4.11 µM [rising, partial curve, poor fit].

For `C=CCNC(=O)c1sc(=S)n(-c2ccc(C(=O)OCC)cc2)c1N`, the cell number change is -0.729%. The AC50 under setting [2] was 29.1 µM [rising, single point].

As for `COC(=O)c1sccc1-n1cccc1C(=O)NCc1ccccc1`, the cell number change stood at 16.1%.

For the compound `Cc1c(Cl)cccc1NC(=O)CCNC(=O)N1CC(=O)Nc2ccccc21`, the cell number change is -5.2%.

Regarding `COc1ccc(OC)c(-c2nnc(SCC(=O)N3CCOCC3)o2)c1`, the cell number change is 8.97%. The AC50 under setting [2] is 6.51 µM [rising, full curve, poor fit].

For `COc1ccccc1-n1nnnc1SCC(=O)Nc1cc(C)on1`, the cell number change is -10.2%. The AC50 under setting [2] was 3.26 µM [rising, single point].

Turning to `O=c1c2ccccc2nc(-c2ccc(Cl)cc2Cl)n1O`, the cell number change was -45.8%. For the same compound, the AC50 under setting [1] is 6.51 µM [falling, partial curve, poor fit]. The half-maximal activity concentration (AC50) under setting [2] is 6.51 µM [falling, partial curve].

As for `COC(=O)C1CCN(C(=O)COC(=O)c2cc(-c3ccccc3)nc3ccc(OC)cc23)CC1`, the cell number change is -19.8%. Also, the AC50 under setting [2] is 0.092 µM [rising, partial curve, poor fit].

For `Cc1cc(CNC(=O)c2cc(-c3ccccc3)nc3ccccc23)nn1C`, the cell number change is 3.38%.

On to `CC(C)(O)C#CC#CCN1CCOCC1`, for which the cell number change was 2%. Besides, the AC50 under setting [2] is 0.259 µM [falling, full curve, poor fit].

Regarding `COc1cccc(C2(c3cccc(OC)c3)CC2C(=O)Nc2cccc3ccccc23)c1` (configuration not stated), the cell number change was -49.1%. For the same compound, under setting [1], the AC50 is 7.31 µM [falling, partial curve]. For the same compound, the AC50 under setting [2] was 2.59 µM [falling, full curve].

`CC(C)C(NC(=O)C12CC3CC(CC(C3)C1)C2)C(=O)N/N=C/C1=C(N2CCOCC2)C(=C\c2ccc([N+](=O)[O-])cc2)/CC1` (configuration not stated): the cell number change is 7.14%. Also, under setting [1], the AC50 was 3.66 µM [rising, single point].

For `C/C(=N/OCc1ccc(Br)cc1)c1ccccn1`, the cell number change is -21.1%.

On to `CCCNC(=O)C(Cc1ccc(OC)cc1)NC(=O)c1ccc(C#N)cc1` (configuration not stated), for which the cell number change is -3.05%. For the same compound, the AC50 under setting [2] was 0.164 µM [rising, partial curve].

In the case of `O=C1N=c2ccccc2=C1c1sc(=S)n(NC(=O)c2ccccc2)c1O`, the cell number change was -19.3%. Under setting [1], the AC50 was 0.00517 µM [falling, full curve, poor fit].

On to `Cc1ccc(-c2nnc(N3CCN(c4ccccn4)CC3)c3ccccc23)cc1`, for which the AC50 under setting [1] was 2.06 µM [rising, partial curve] and the half-maximal activity concentration (AC50) under setting [2] is 1.84 µM [rising, partial curve].

For `O=[N+]([O-])c1cccc(-c2nnc3ccccn23)c1`, the cell number change was -46.1%. For the same compound, under setting [1], the AC50 is 36.6 µM [falling, partial curve, poor fit].

In the case of `CNCC(O)COc1ccccc1` (configuration not stated), the AC50 by setting is: under setting [1], 0.731 µM [falling, full curve]; under setting [2], 6.51 µM [falling, single point].

Consider `C=CCOc1c2ccc(C(=O)NCc3ccc(OC)cc3)cc2nn1C`, for which the cell number change was -36.4%. The AC50 under setting [1] is 20.6 µM [falling, single point].

Take `Cc1ccn(CC(=O)N2CCCC(N3CCN(c4ccccc4F)CC3)C2)n1` (configuration not stated): the cell number change was determined as 24.9%.

As to `O=C1c2ccccc2C(=O)N1/N=C/c1ccc(O)c(O)c1O`, the cell number change was -11.3%. Under setting [2], the AC50 is 6.51 µM [falling, single point].

As for `CCOC(=O)C1CCCN(C(=O)CCNS(=O)(=O)c2ccc(Br)cc2)C1` (configuration not stated), the cell number change is 14.4%. Under setting [2], the half-maximal activity concentration (AC50) is 2.59 µM [falling, partial curve, poor fit].

Consider `Cc1ccc(C)c(N2CCN(C(=O)c3ccc(N4CCCC4=O)cc3)CC2)c1`, for which the cell number change turned out to be 21%. Also, the AC50 under setting [2] was 6.51 µM [rising, single point].

In the case of `O=C1c2ccccc2C(=O)N1c1ccc(Br)c2cccnc12`, the cell number change worked out at 61.1%. In addition, under setting [1], the AC50 was 23.1 µM [rising, single point].

Turning to `CC(=O)Nc1ccc(Nc2nc(C(F)(F)F)nc3c2nnn3Cc2ccccc2Cl)cc1`, the cell number change is -41.7%. The AC50 under setting [1] is 10.3 µM [falling, partial curve]. Further, the AC50 under setting [2] is 1.84 µM [rising, partial curve].

For `CCOc1cc(/C=N/NC(=O)Cc2ccc(C(F)(F)F)cc2[N+](=O)[O-])ccc1O`, the cell number change was determined as 6.86%.

`Cc1ccc2c(c1)c1c3n2CCCN(Cc2ccccc2)C3CCC1` (configuration not stated): the cell number change is -19.3%. The AC50 under setting [2] was 25.9 µM [falling, single point].

With `CCOC(=O)NC(=O)c1cn(C(CC)CO)c(=O)[nH]c1=O` (configuration not stated), the cell number change is 12.1%. Also, the AC50 under setting [2] was 29.1 µM [falling, single point].
